# Hit rate of the full screen: of about 290,000 compounds, about 110 (0.038%) were called active. The inconclusive results got no clear call from the source; some entries with a clear call stand among them for comparison. Calls come from the whole dose curve; as a rule, active = well fitted inhibition curve with a large enough effect in the polarisation, with a control signal flat (not every such curve was filed as active); inconclusive = small, poorly fitted or top-dose-only effect, or effect the other way, or a change in a side signal; inactive = no such curve, though single readings can be large or run the other way; the % refers to the polarisation. Potencies beside an inconclusive call are fits to weak or partial responses and may not hold up. “Side channel” marks fits to a control or component signal instead of the main read-out.
# Protein sequences, listed by entry. Tags and fused reporters are not part of them.
# UniProt Q03164, whole entry, looked up: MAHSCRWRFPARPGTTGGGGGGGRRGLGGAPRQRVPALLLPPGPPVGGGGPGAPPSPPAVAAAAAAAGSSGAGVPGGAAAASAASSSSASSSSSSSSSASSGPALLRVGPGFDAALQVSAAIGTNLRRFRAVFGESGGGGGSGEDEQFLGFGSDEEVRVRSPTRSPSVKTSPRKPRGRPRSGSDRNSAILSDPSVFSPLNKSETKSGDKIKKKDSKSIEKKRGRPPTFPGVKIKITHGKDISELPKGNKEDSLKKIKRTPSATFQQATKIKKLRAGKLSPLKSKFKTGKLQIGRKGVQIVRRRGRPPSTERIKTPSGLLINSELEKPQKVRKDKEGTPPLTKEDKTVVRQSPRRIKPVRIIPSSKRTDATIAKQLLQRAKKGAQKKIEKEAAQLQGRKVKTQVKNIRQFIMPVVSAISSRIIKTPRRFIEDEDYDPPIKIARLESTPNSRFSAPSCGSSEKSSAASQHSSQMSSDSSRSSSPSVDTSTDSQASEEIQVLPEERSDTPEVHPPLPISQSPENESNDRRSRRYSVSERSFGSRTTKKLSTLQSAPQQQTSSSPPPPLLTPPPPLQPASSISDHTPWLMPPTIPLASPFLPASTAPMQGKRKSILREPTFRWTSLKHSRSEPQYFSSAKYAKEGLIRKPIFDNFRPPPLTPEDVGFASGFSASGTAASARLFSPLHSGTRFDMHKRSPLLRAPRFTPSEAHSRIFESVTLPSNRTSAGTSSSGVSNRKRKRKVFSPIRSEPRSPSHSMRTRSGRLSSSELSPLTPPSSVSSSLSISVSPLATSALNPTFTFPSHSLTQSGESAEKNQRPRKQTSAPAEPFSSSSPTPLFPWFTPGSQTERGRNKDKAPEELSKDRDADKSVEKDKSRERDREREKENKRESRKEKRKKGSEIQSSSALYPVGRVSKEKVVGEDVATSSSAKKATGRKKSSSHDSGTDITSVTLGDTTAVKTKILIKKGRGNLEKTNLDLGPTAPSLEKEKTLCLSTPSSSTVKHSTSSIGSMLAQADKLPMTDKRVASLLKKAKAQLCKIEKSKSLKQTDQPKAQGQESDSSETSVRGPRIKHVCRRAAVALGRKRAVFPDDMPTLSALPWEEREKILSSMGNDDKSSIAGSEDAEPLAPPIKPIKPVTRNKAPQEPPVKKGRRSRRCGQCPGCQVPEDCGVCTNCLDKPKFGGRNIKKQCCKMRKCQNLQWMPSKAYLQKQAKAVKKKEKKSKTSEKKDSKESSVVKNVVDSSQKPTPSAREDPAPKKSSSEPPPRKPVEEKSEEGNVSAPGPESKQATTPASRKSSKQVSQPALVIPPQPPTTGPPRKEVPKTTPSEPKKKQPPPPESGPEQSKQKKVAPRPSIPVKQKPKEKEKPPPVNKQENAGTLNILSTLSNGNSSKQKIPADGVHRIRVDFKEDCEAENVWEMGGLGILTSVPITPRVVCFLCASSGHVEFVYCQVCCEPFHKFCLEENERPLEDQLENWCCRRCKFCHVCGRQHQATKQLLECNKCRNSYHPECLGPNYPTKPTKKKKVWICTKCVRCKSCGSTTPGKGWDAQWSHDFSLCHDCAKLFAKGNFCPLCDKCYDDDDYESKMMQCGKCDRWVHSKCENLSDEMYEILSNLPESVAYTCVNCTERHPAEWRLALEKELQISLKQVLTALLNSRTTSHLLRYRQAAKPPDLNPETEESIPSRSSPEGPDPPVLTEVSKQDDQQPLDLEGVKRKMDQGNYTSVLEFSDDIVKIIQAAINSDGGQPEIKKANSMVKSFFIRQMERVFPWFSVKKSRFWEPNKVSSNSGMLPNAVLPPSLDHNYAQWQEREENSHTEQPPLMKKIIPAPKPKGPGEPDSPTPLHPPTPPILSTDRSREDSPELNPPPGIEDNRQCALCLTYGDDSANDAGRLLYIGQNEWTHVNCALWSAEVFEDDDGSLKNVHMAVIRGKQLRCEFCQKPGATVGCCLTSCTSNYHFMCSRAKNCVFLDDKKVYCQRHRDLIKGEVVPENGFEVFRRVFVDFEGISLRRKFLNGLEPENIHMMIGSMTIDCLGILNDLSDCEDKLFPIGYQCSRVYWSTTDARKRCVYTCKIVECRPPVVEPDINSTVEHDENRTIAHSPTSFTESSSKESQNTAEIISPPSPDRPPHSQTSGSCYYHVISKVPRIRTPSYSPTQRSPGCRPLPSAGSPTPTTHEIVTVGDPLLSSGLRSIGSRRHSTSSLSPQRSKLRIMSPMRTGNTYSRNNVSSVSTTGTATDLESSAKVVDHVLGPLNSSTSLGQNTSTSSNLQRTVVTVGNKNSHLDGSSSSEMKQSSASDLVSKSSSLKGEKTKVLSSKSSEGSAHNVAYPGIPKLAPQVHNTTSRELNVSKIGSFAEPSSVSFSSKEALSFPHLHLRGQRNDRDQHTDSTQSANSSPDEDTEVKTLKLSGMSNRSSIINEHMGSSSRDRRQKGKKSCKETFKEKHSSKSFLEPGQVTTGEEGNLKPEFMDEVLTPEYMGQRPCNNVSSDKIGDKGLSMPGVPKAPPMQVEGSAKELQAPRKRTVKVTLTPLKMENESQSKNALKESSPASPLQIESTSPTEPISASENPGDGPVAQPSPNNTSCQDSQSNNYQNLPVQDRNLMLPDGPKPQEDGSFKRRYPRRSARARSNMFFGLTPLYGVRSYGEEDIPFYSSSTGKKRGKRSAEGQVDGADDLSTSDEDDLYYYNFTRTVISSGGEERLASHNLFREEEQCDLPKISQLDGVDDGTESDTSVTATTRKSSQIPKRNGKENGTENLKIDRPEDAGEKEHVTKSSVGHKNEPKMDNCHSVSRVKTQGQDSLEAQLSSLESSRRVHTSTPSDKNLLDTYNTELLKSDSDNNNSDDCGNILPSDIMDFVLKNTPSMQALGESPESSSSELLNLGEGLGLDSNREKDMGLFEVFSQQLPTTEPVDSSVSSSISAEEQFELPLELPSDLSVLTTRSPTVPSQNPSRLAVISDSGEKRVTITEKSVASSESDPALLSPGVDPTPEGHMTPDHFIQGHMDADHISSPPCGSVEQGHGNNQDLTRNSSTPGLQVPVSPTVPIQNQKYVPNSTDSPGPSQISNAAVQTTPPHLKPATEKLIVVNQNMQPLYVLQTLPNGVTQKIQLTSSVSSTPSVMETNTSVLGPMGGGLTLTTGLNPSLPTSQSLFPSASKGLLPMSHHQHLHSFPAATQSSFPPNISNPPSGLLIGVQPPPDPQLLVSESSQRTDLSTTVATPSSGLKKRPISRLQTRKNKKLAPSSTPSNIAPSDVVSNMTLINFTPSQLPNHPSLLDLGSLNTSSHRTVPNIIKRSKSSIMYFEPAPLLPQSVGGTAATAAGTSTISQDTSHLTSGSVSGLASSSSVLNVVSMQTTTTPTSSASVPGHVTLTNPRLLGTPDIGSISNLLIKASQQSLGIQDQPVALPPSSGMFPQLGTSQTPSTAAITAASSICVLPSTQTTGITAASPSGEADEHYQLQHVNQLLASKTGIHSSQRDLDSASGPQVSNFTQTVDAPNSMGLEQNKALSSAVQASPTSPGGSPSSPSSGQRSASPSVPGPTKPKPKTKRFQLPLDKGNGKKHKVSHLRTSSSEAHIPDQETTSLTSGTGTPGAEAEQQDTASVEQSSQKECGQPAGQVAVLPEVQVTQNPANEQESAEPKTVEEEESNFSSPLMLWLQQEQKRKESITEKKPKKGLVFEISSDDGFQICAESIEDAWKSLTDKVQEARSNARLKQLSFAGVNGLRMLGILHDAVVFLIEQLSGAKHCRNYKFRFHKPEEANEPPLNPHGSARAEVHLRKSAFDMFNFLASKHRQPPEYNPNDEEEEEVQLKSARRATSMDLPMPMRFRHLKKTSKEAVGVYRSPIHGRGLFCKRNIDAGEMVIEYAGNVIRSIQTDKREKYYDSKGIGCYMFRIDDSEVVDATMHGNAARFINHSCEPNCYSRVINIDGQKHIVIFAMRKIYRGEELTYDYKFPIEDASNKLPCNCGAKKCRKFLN
# Biological target: Histone-lysine N-methyltransferase 2A (Homo sapiens) (UniProt Q03164)
# Assay: qHTS Fluorescence Polarization Assay for Inhibitors of MLL CXXC domain - DNA interaction
# Details: MLL-CXXC / FITC-HOXA9 DNA fluorescence polarization; activity change, negative = inhibition: at 115 µM (top of the series)
# How it was run: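 Purified MLL-CXXC (added from a 7 uM solution) was preincubated 5 min at ambient with pinned compounds in 50 mM Tris-HCl pH 7.5, 50 mM NaCl, 1 mM DTT, 0.05% BSA. Fluorescein-labeled HOX-A9 DNA (50 nM solution) followed, 30 min, then polarization read.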
# Potency is the fitted concentration of half-maximal effect.
Structure (SMILES),Potency,"activity change, negative = inhibition"
CC1=Nc2ccccc2/C1=C/c1sc(=S)n(-c2cccc(C(=O)O)c2)c1O,"inconclusive: 2.51 µM [fluorescent, side channel, full curve]",–
O=C(Nc1cccc(C(F)(F)F)c1)Nc1ccon1,"inconclusive: 10 µM [fluorescent, side channel, single point]",–
NCc1ccccc1COc1ccccc1,inactive,–
CCOc1ccccc1NC(=O)c1cc(S(=O)(=O)N2CCN(CC)CC2)ccc1Cl,"inconclusive: 14.1 µM [fluorescent, side channel, single point]",–
CN(C(=O)Nc1ccc(S(=O)(=O)N(C)C)cc1)C1CCCCC1,"inconclusive: 1.41 µM [fluorescent, side channel, full curve, poor fit]",–
O=C(O)c1ccc(Nc2nc3c(s2)CCCC3)cc1,"inconclusive: 39.8 µM [inhibitor, single point]",–
CCOC(=O)C1(CCOc2ccccc2)CCN(Cc2cc(OC)c(O)c(OC)c2)CC1,inactive,–
COc1cc(/C=C(\C#N)c2nc3ccccc3[nH]2)cc(OC)c1O,"inconclusive: 7.08 µM [fluorescent, side channel, full curve]",–
O=C(O)c1ccccc1C(c1ccc(O)cc1)c1ccc(O)cc1,"inconclusive: 63.1 µM [fluorescent, side channel, single point]",–
COc1ccc(NC(=O)CSc2nnc(-c3cccs3)n2-c2ccccc2)cc1,inactive,–
O=[N+]([O-])c1ccc(Nc2nc(N/N=C\c3ccc4c(c3)OCO4)nc(N3CCCCC3)n2)cc1,"inconclusive: 63.1 µM [quencher, side channel, single point]",–
COc1ccc(/C(C)=N/Nc2ccc(F)cc2F)c(O)c1,inactive,–
O=C(Nc1ccccc1OC(F)F)c1ccc(S(=O)(=O)N2CCOCC2)cc1,"inconclusive: 15.8 µM [fluorescent, side channel, single point]",–
COc1ccc2nc(C)cc(N/N=C/c3cccc(OC)c3O)c2c1,"inconclusive: 28.2 µM [quencher, side channel, partial curve]",–
CC(Oc1ccc(Cl)cc1)C(=O)N1CCCc2ccccc21 (stereo not given),"inconclusive: 14.1 µM [fluorescent, side channel, single point]",–
O=C(Oc1ccc(/C=N/NC(=O)c2ccccc2F)cc1)c1ccccc1,–,inconclusive: 4.61% [phenotype inactive]
Cc1cc(C(=O)OCC(=O)Nc2cc(S(=O)(=O)N(C)C)ccc2C)c2ccccc2n1,inactive,–
O=C(NC1CCN(C(=O)Nc2ccc(F)cc2)CC1)c1ccc(F)cc1,"inconclusive: 39.8 µM [fluorescent, side channel, single point]",–
CN(C)c1nc(N(C)C)n(C(=O)c2cccs2)n1,"inconclusive: 11.2 µM [fluorescent, side channel, single point]",–
O=S(=O)(Nc1ccc2c(c1)OCCO2)c1cccc(F)c1,"inconclusive: 35.5 µM [inhibitor, single point]",–

Structure (SMILES),Potency,"activity change, negative = inhibition"
CC1CCN(C(=O)CSc2nnc(CNC(=O)c3ccc(S(=O)(=O)N(C)C)cc3)o2)CC1,"inconclusive: 3.16 µM [quencher, side channel, full curve, poor fit]",–
CCN(CC)c1ccc2cc(C(N)=O)/c(=N\NC(=O)c3ccncc3)oc2c1,"inconclusive: 28.2 µM [fluorescent, side channel, partial curve]",–
COc1cc2[nH]c(=O)c(C(=O)NCCCN3CCCCC3)c(O)c2cc1OC,"inconclusive: 39.8 µM [quencher, side channel, partial curve]",–
O=[N+]([O-])c1cccc2c(S(=O)(=O)N3CCOCC3)cccc12,"inconclusive: 89.1 µM [fluorescent, side channel, single point]",–
CC(=O)Oc1ccccc1C(=O)N1CCN(S(=O)(=O)c2ccc3ccccc3c2)CC1,"inconclusive: 31.6 µM [inhibitor, single point]",–
CNS(=O)(=O)c1cc(Nc2ncnc3sccc23)ccc1C,"inconclusive: 22.4 µM [fluorescent, side channel, partial curve]",–
Cc1onc(-c2ccccc2)c1C(=O)N1CCCC1,"inconclusive: 8.91 µM [fluorescent, side channel, partial curve]",–
Cn1c(N)c(S(=O)(=O)N2CCN(c3cccc(Cl)c3)CC2)c(=O)n(C)c1=O,"inconclusive: 8.91 µM [fluorescent, side channel, single point]",–
Cc1c2cnn(CC(=O)NCCCN3CC(C)CC(C)C3)c(=O)c2c(C)n1Cc1ccccc1Cl (stereo not given),"inconclusive: 50.1 µM [quencher, side channel, single point]",–
N=C1/C(=C\c2coc3ccc(O)cc3c2=O)C(=O)N=C2SC=CN12,"inconclusive: 10 µM [fluorescent, side channel, full curve]",–
COc1ccc(CN(C)CC(=O)Nc2ccc(SC(F)F)cc2)cc1OC,inactive,–
O=C(NCCc1ccccc1)c1oc2ccccc2c1COc1ccccc1,inactive,–
C=CCN1CC(=O)N2C(C)c3[nH]c4ccccc4c3C[C@H]2C1=O (stereo not given in full),"inconclusive: 2 µM [fluorescent, side channel, full curve, poor fit]",–
COc1cc2c(=O)n(CC3CCCO3)c(=O)n(CC(=O)Nc3cccc(Cl)c3)c2cc1OC (stereo not given),inactive,–
O=C(Nc1nn[nH]n1)c1cc(-c2ccc(Cl)c(Cl)c2Cl)nc2ccccc12,"inconclusive: 15.8 µM [inhibitor, single point]",–
COC(=O)[C@@H]1C[C@@]2(O)[C@H](O)[C@H](O)[C@H](O)C[C@H]2N1Cc1ccc(C(F)(F)F)cc1,–,inconclusive: 14.1% [phenotype inactive]
O=C1C(Br)=Cc2cccc3cccc1c23,"inconclusive: 70.8 µM [inhibitor, single point]",–
Cc1cccnc1NC(=S)Nc1ccc(Cl)c(Cl)c1,inactive,–
Cn1c(=N)n(CC(=O)c2ccc(Cl)c(Cl)c2)c2ccccc21,"inconclusive: 70.8 µM [quencher, side channel, single point]",–
COC(=O)c1sc(NC(=O)c2cc(-c3ccccc3)nc3ccccc23)c(C#N)c1C,inactive,–

# Single records (already shown).
# Cn1c(=N)n(CC(=O)c2ccc(Cl)c(Cl)c2)c2ccccc21 reads Potency: inconclusive: 70.8 µM [quencher, side channel, single point]
# N=C1/C(=C\c2coc3ccc(O)cc3c2=O)C(=O)N=C2SC=CN12 reads Potency: inconclusive: 10 µM [fluorescent, side channel, full curve]
# CCN(CC)c1ccc2cc(C(N)=O)/c(=N\NC(=O)c3ccncc3)oc2c1 reads Potency: inconclusive: 28.2 µM [fluorescent, side channel, partial curve]

# Going on with the list:

Structure (SMILES),Potency,"activity change, negative = inhibition"
Cc1ccc2cc3c(N)c(C(=O)Nc4c(C)[nH]c(=O)[nH]c4=O)sc3nc2c1,"inconclusive: 56.2 µM [fluorescent, side channel, single point]",–
CCn1ccnc1CN(C)Cc1nc(-c2cccc(Cl)c2)no1,"inconclusive: 35.5 µM [inhibitor, partial curve]",–
O=C(COC(=O)C1CCC1)Nc1ccccc1Sc1ccccc1,"inconclusive: 14.1 µM [inhibitor, single point]",–
Cc1cccc(C(=O)Oc2ccc3ccc(O)cc3c2)c1,inactive,–
COc1ccccc1N1C(=O)S/C(=C\c2cc(C)n(C)c2C)C1=O,"inconclusive: 79.4 µM [fluorescent, side channel, single point]",–
COC(=O)c1ccc(NC(=O)Nc2ccc3c(c2)OCO3)cc1,–,inconclusive: -7.86% [phenotype inactive]
COc1ccc(C(c2c(C)[nH]n(-c3ccccc3)c2=O)c2c(C)[nH]n(-c3ccccc3)c2=O)cc1OC,"inconclusive: 2.82 µM [inhibitor, full curve, poor fit]",–
Cc1cc(C)n(-c2ccc(C(=O)Nc3ccc(C)c(S(=O)(=O)N(C)C)c3)cc2)n1,"inconclusive: 8.91 µM [quencher, side channel, single point]",–
CCOc1ccccc1NC(=O)CSc1nc2cc(O)ccc2c(=O)n1-c1ccc(OC)c(OC)c1,"inconclusive: 44.7 µM [fluorescent, side channel, single point]",–
COc1cccc(NC(=O)c2cncs2)c1,"inconclusive: 31.6 µM [fluorescent, side channel, partial curve]",–
COc1cc2c(cc1OC)-c1c(OC)c(OC)cc3ccnc(c13)C2=O,"inconclusive: 15.8 µM [quencher, side channel, partial curve]",–
CC(C)[C@H](NC(=O)c1ccccc1F)C(=O)Nc1nc2c(s1)CCCC2,"inconclusive: 31.6 µM [fluorescent, side channel, partial curve]",–
COc1cc(/C=N/NC(=O)c2ccncc2)cc2c1OCO2,inactive,–
CCOc1ccccc1CN1CCNC(=O)C1CC(=O)N(C)CCc1cnn(C)c1 (stereo not given),inactive,–
COc1ccc(-n2c(O)c(/C=N/NS(=O)(=O)c3cc(C)ccc3C)c3ccccc3c2=O)cc1OC,"inconclusive: 11.2 µM [fluorescent, side channel, full curve]",–
O=[N+]([O-])c1cccc(-c2nc(Oc3ccc(Cl)cc3)c3ccccc3n2)c1,"inconclusive: 44.7 µM [inhibitor, single point]",–
CC(OC(=O)CCC(=O)c1cccs1)C(=O)Nc1ccc(Cl)cn1 (stereo not given),"inconclusive: 15.8 µM [fluorescent, side channel, single point]",–
Cc1ccc2c(c1)Oc1ccc([N+](=O)[O-])cc1C(=O)N2,inactive,–
CCOC(=O)c1sc(/N=C/c2c(C)[nH]n(-c3ccccc3)c2=O)c(C#N)c1C,"inconclusive: 70.8 µM [fluorescent, side channel, single point]",–
COc1cc2c(cc1OC)-c1cc(Nc3ccc(C)cc3)nc(=O)n1CC2,"inconclusive: 44.7 µM [fluorescent, side channel, partial curve]",–

# Source: PubChem BioAssay AID2662 (National Center for Advancing Translational Sciences (NCATS), 2010)
